Results are given in words; binding and its absence hold for the method and conditions named. In cells and extracts the contact can be indirect. Some results given as binding are weak or reduced against the parent protein; the word gives no strength.
How the values were obtained:
Experiment in all cases: cross-linking; lysates of transfected HEK293T cells, 1 mM CuP 5 min at room temperature, stopped with 50 mM N-ethylmaleimide; non-reducing 12% SDS-PAGE, anti-Orai1 blot, percentage of dimer formation
[1] = biological target: Orai1 K85E R91C H134A (human) (UniProt Q96D31)
[2] = biological target: Orai1 K85E V102C H134A (human) (UniProt Q96D31)
[3] = biological target: Orai1 R91C (human) (UniProt Q96D31)
[4] = biological target: Orai1 R91C H134A (human) (UniProt Q96D31)
[5] = biological target: Orai1 R91C H134A E149K (human) (UniProt Q96D31)
[6] = biological target: Orai1 R91C H134A L174D (human) (UniProt Q96D31)
[7] = biological target: Orai1 R91C H134A S239W (human) (UniProt Q96D31)
[8] = biological target: Orai1 V102C (human) (UniProt Q96D31)
[9] = biological target: Orai1 V102C H134A (human) (UniProt Q96D31)

Amino acid sequences for entries named in this document (tags omitted). A change or cut given only in a name is not applied to a line headed by its entry.
UniProt Q96D31: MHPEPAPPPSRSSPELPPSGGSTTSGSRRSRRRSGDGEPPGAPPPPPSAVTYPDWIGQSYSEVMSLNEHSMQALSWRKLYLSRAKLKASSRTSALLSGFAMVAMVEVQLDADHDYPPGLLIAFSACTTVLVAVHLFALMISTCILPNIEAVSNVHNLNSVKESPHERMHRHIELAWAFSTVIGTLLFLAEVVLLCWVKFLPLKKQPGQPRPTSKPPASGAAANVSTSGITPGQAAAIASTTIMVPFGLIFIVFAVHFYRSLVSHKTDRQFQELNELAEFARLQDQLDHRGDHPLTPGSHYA

Orai1 K85E R91C H134A (from UniProt Q96D31-1 1-301)
binding [1]: binds

Orai1 K85E V102C H134A (from UniProt Q96D31-1 1-301)
binding [2]: binds

Orai1 R91C (from UniProt Q96D31-1 1-301)
binding [3]: binds

Orai1 R91C H134A (from UniProt Q96D31-1 1-301)
binding [4]: binds

Orai1 R91C H134A E149K (from UniProt Q96D31-1 1-301)
binding [5]: binds

Orai1 R91C H134A L174D (from UniProt Q96D31-1 1-301)
binding [6]: binds

Orai1 R91C H134A S239W (from UniProt Q96D31-1 1-301)
binding [7]: binds

Orai1 V102C (from UniProt Q96D31-1 1-301)
binding [8]: binds

Orai1 V102C H134A (from UniProt Q96D31-1 1-301)
binding [9]: binds
